# In PMC1779461:
# By UniProt entry, the sequences of proteins in these tests, tags left out. Where a name states a change or a piece, a line headed by the entry shows the natural chain unless it says otherwise. Chains listed by the source or under a name are the forms on record and can include a tag or linker. Residues count along the entry.
# wild-type (WT) human β3 integrin (P05106, residues 27-788): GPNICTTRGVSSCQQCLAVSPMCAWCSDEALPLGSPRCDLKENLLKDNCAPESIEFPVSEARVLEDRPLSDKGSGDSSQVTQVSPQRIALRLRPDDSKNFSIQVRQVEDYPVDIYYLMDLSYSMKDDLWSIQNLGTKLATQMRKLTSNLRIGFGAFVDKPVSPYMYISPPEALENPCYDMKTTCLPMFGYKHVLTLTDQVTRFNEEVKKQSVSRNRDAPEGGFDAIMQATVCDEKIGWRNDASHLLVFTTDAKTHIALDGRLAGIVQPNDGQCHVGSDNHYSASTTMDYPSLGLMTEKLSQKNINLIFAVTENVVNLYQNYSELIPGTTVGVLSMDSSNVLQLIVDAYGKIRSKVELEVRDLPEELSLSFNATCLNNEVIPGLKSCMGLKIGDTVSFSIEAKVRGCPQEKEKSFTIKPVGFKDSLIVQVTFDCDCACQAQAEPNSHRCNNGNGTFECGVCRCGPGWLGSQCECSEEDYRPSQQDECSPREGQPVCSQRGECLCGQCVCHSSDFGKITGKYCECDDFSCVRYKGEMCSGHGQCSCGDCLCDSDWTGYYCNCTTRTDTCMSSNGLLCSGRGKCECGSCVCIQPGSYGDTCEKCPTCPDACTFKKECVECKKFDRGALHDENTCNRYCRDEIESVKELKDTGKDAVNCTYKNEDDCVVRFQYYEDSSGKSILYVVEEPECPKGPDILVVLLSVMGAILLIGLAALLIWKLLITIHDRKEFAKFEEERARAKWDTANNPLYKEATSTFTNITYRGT
# D119A β3 integrin (inactive mutant of human β3 integrin) (P05106, form named): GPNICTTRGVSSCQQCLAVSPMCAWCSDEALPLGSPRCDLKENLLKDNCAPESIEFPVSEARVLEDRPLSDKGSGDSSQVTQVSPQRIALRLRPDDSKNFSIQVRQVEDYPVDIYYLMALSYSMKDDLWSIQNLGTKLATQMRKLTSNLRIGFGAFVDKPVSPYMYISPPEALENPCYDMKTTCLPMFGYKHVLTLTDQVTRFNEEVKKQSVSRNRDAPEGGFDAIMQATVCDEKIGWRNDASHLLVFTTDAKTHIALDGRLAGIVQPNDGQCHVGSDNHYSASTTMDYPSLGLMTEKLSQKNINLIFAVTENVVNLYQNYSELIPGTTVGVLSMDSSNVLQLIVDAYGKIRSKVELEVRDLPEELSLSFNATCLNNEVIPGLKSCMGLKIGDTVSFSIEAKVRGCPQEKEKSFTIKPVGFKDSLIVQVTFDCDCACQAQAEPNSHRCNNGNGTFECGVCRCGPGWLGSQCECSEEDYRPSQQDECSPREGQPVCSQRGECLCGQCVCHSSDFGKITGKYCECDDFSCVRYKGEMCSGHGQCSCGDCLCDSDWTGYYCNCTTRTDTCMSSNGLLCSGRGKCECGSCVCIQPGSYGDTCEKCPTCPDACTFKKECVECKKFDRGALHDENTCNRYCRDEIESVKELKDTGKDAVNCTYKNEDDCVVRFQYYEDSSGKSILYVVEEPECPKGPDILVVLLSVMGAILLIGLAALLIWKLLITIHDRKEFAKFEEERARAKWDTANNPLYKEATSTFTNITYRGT
# UniProt P01137, residues 279-390: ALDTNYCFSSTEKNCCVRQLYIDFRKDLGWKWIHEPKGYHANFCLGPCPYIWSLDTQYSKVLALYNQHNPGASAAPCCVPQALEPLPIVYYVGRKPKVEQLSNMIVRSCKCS
# Results are given in words; binding and its absence hold for the method and conditions named. In cells and extracts the contact can be indirect. Some results given as binding are weak or reduced against the parent protein; the word gives no strength.
# How the values were obtained:
# [1] = target: T1, TGF-β receptor type II (endogenous, NMuMG cells) (mouse (endogenous in NMuMG)) (UniProt Q62312); assay: cross-linking + co-IP; after binding and cross-linking of [125I]TGF-β1 to NMuMG cells, detergent-solubilized extracts immunoprecipitated with anti-TβR-II antibodies; blot with anti-β3 integrin antibodies, phosphor image for the receptors
# T1 sequence: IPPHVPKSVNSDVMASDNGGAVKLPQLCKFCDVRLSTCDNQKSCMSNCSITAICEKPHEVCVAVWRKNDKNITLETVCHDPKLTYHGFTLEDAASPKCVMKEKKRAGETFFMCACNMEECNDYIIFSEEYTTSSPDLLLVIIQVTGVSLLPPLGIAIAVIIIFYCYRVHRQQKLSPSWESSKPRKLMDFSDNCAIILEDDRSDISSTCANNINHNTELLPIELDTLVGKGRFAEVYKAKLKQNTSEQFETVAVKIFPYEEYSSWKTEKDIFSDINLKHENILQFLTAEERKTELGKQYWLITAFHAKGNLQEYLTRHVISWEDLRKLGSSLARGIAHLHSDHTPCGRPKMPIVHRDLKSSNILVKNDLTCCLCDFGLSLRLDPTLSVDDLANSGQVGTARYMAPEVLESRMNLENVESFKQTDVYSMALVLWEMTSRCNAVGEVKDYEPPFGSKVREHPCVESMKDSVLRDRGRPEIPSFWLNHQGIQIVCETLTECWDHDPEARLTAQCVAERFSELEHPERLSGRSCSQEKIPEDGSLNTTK
# [2] = target: T2, TGF-β receptor type I (endogenous, NMuMG cells) (mouse (endogenous in NMuMG)) (UniProt Q64729); assay: radioligand binding + cross-linking; [125I]TGF-β1 (200 pmol/l) bound and chemically cross-linked to control (GFP), WT or D119A β3 integrin expressing NMuMG cells; complexes immunoprecipitated with anti-TβR-II, 7.5% SDS-PAGE, phosphor image; only the binder purified
# T2 sequence: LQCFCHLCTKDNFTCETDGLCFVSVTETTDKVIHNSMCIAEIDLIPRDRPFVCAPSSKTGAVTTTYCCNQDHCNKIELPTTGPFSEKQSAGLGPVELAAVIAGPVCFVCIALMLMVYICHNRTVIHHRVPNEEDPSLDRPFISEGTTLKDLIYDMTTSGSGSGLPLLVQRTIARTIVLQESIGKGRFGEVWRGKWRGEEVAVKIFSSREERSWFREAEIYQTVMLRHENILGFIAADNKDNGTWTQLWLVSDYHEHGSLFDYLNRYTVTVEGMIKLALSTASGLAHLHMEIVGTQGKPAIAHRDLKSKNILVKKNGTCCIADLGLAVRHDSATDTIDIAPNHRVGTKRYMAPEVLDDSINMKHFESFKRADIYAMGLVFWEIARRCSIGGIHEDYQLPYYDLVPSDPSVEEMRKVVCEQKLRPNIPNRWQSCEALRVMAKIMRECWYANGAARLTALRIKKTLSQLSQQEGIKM
# [3] = target: T1, TGF-β receptor type II (endogenous, NMuMG cells) (mouse (endogenous in NMuMG)); assay: as above
binding [1],binding [2],binding [3],Substance
binds,,,D119A β3 integrin (inactive mutant of human β3 integrin) (from UniProt P05106 27-788) (receptor)
,binds,binds,iodinated transforming growth factor-β1 (from UniProt P01137 279-390) (ligand)
binds,,,wild-type (WT) human β3 integrin (from UniProt P05106 27-788) (receptor)
